Out of some 320,000 compounds screened, about 2,100 (0.66%) were called active. The shares of active, inactive and inconclusive entries below differ from those in the screen. Calls come from the whole dose curve; as a rule, active = well fitted inhibition curve with a large enough effect in the signal ratio, with a control signal flat (not every such curve was filed as active); inconclusive = small, poorly fitted or top-dose-only effect, or effect the other way, or a change in a side signal; inactive = flat fitted curve, though single readings scatter; the % refers to the signal ratio. Where the call is inconclusive, the potency comes from a doubtful curve fit.
Experiment: qHTS Assay for Lipid Storage Modulators in Drosophila S3 Cells
Conditions: BODIPY lipid droplet fluorescence, 18-24 h, cells fed with added oleic acid; lipid storage change, negative = inhibition: at 46.1 µM (top of the series) unless noted
How it was run: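 Laser-scanning cytometry quantifies lipid droplet accumulation (500–530 nm total intensity; droplet/cell object ratio) in oleic acid-fed (400 uM added) Drosophila S3 cells treated with a concentration series. 20 uM Triacsin C defined 100% inhibition.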
% is set by controls: 0 for no effect and ±100 for the full control effect; potency is the fitted concentration of half-maximal effect.

| Structure (SMILES) | lipid storage change, negative = inhibition | Potency |
| --- | --- | --- |
| O=C(COC(=O)C12CC3CC(CC(O)(C3)C1)C2)Nc1ccc(Cl)cc1F | inconclusive: -63% | – |
| CCOC(=O)CNC(=O)c1cn(CC)c(=O)c2cc(OC)c(OC)cc12 | inconclusive: 17.7% | – |
| O=C(COc1ccc(S(=O)(=O)N2CCOCC2)cc1)Nc1ccccc1Cl | – | active: 1.84 µM |
| COC(=O)C1=C(NC(=O)c2ccccc2C)CCS1 | inconclusive: 5% | – |
| O=C(OCc1ccccc1)/C(=C/c1ccc(Cl)cc1)NC(=O)c1ccccc1Cl | inconclusive: -30.4% | – |
| Cc1cccn2c(=O)c3cc(S(=O)(=O)c4ccccc4)c(=N)n(Cc4cccnc4)c3nc12 | inconclusive: 14.6% | – |
| COC(=O)c1ccc(CNC(=O)CSc2nnc(COc3ccccc3)n2C)o1 | – | inconclusive: 2.31 µM [falling, full curve, poor fit] |
| CCOc1ccc(N(CC(=O)NC2CC3CCC2C3)S(=O)(=O)c2ccccc2)cc1 (configuration not stated) | inactive | – |
| O=C(CSc1cn(Cc2ccccc2)c2ccccc12)NCc1ccc(F)cc1 | inconclusive: 3.86% | – |
| COc1cccc(CNC(=O)c2c(C)nn(-c3ccccc3)c2C)c1 | inconclusive: -2.31% | – |
| O=c1cnc(-c2ccc(Cl)cc2)cn1O | inconclusive: -1.6% | – |
| COc1ccc(NC(=O)C2CCC(=O)N2)cc1 (configuration not stated) | – | inconclusive: 1.03 µM [falling, full curve, poor fit] |
| CCOC(=O)C1=C(C)Nc2nc(SCc3cccnc3)nn2C1c1ccc(OC)cc1 (configuration not stated) | inconclusive: 8.12% [at 9.22 µM] | – |
| CC(c1cccs1)N(Cc1ccco1)C(=O)Nc1ccc(Cl)c(Cl)c1 (configuration not stated) | inconclusive: 4.14% | – |
| Cc1ccc(C)c(NC(=O)c2cnn3ccccc23)c1 | inconclusive: -3.93% | – |
| Cc1cc(NC(=O)CN(C)C)c([N+](=O)[O-])cc1C | inconclusive: 13.2% | – |
| CCOc1ccc2nc(SCC(=O)NC3CCCCC3)[nH]c2c1 | inconclusive: -193% | – |
| COc1ccc(NS(=O)(=O)c2ccc(C)c(C(=O)N(C)CC(=O)Nc3cccc(OC)c3)c2)cc1 | inconclusive: 35.3% [at 0.0737 µM] | – |
| Cc1nc2ccc(NC(=S)NCCCO)cc2nc1C | inconclusive: 22.3% | – |
| Nc1ccccc1C(=O)Nc1cccc2ccccc12 | inconclusive: 15.9% | – |
| CCC(NC(=S)NCc1ccc(F)cc1)c1ccccc1 (configuration not stated) | inconclusive: -9.19% | – |
| NS(=O)(=O)c1ccc(NC(=O)c2ccc3c(c2)CCN3S(=O)(=O)c2ccccc2)cc1 | – | inconclusive: 3.26 µM [falling, partial curve] |
| COc1ccc(C(=O)N2CCC(C(=O)NC3CC3)CC2)cc1 | – | inconclusive: 23.1 µM [activator, single point] |
| CC(C)C(=O)N1CCN(S(=O)(=O)c2ccc3ccccc3c2)CC1 | inconclusive: -100% | – |
| O=C1CSC(c2ccco2)N1 (configuration not stated) | inconclusive: -5.18% | – |
| CCOC(=O)c1c(-c2ccc(F)cc2)csc1NC(=O)C1CCCO1 (configuration not stated) | inactive | – |

Grouped by structure, those above with four or more nitrogen atoms.

| Structure (SMILES) | lipid storage change, negative = inhibition | Potency |
| --- | --- | --- |
| Cc1cccn2c(=O)c3cc(S(=O)(=O)c4ccccc4)c(=N)n(Cc4cccnc4)c3nc12 | inconclusive: 14.6% | – |
| COC(=O)c1ccc(CNC(=O)CSc2nnc(COc3ccccc3)n2C)o1 | – | inconclusive: 2.31 µM [falling, full curve, poor fit] |
| CCOC(=O)C1=C(C)Nc2nc(SCc3cccnc3)nn2C1c1ccc(OC)cc1 (configuration not stated) | inconclusive: 8.12% [at 9.22 µM] | – |
| Cc1nc2ccc(NC(=S)NCCCO)cc2nc1C | inconclusive: 22.3% | – |

Remaining list, next part.

| Structure (SMILES) | lipid storage change, negative = inhibition | Potency |
| --- | --- | --- |
| Cc1ccc2oc(C(=O)N3CCN(CCO)CC3)c(C)c2c1 | – | inconclusive: 29.1 µM [activator, single point] |
| COc1cc(C(=O)NCCNC(=O)c2cc(OC)c(C)c(OC)c2)cc(OC)c1C | – | inconclusive: 29.1 µM [falling, partial curve, poor fit] |
| Cc1ccccc1COC(=O)CCCC1=NS(=O)(=O)c2ccccc2N1 | inconclusive: -59.6% | – |
| COC(=O)[C@H](CCSC)NC(=O)Nc1ccc(OC)c(Cl)c1 | inconclusive: 15.8% | – |
| Cc1ccc2nc(-c3cccc(S(=O)(=O)N4CCCC4)c3)cn2c1 | inconclusive: 12.3% | – |
| O=C(NCc1cccnc1)c1ccc(-c2cc(Cl)ccc2Cl)o1 | inconclusive: -28.9% | – |
| O=S(=O)(Cc1ccc(Cl)cc1)N1CCN(Cc2ccccc2)CC1 | inconclusive: -54.2% | – |
| Nc1[nH]ncc1S(=O)(=O)c1ccccc1 | inconclusive: 10.9% | – |
| O=C(O)COc1ccccc1/C=N/NC(=O)CSc1nnc(SCc2ccc(Cl)cc2)s1 | – | inconclusive: 23.1 µM [activator, partial curve, poor fit] |
| COc1ccc(/C=C2\CCCC3C2=NN(C(=O)c2ccco2)C3c2ccc(OC)c(OC)c2)cc1OC (configuration not stated) | – | inconclusive: 29.1 µM [falling, single point] |
| COCCn1c(SCC(=O)NC2CCCC2)nc2ccccc2c1=O | – | inconclusive: 5.8 µM [activator, partial curve] |
| CCOc1ccc(NC(=O)CN(C)C(=O)CSC(C)C(=O)Nc2cc(C)on2)cc1OCC (configuration not stated) | inconclusive: 4.96% | – |
| Cc1ccc(C)n1-c1nnc(N2CCC(C(=O)N3CCN(C)CC3)CC2)s1 | inconclusive: 26.7% | – |
| CS(=O)(=O)n1nc(OC(=O)c2cccc3ccccc23)cc1N | inconclusive: -6.87% | – |
| CCOC(=O)Nc1ccc2c(COC(=O)CNS(=O)(=O)c3cccc(Br)c3)cc(=O)oc2c1 | inconclusive: 37% | – |
| O=C(Nc1cc(Cl)ccc1O)C1CC(c2ccccc2Cl)=NO1 (configuration not stated) | inconclusive: 33.8% | – |
| CCC1(c2ccccc2)NC(=O)N(CC(=O)Nc2ccc(Cl)c(S(=O)(=O)N3CCCCC3)c2)C1=O (configuration not stated) | inconclusive: 30.4% | – |
| CCOc1cc(NS(C)(=O)=O)c(OCC)cc1NC(=O)c1cccs1 | – | inconclusive: 6.51 µM [activator, partial curve, poor fit] |
| Cc1ccc2nc(NC(=O)CSCC(=O)OCC(=O)c3ccccc3)sc2c1 | inconclusive: 1.1% | – |
| O=C(c1ccc(S(=O)(=O)c2ccccc2Cl)c([N+](=O)[O-])c1)N1CCN(Cc2ccccc2)CC1 | – | inconclusive: 20.6 µM [falling, single point] |
| CCOC(OCC)c1cn(Cc2ccc3c(c2)C(=O)c2ccccc2C3=O)nn1 | – | inconclusive: 29.1 µM [falling, single point] |
| O=C(C[n+]1cccc(CO)c1)Nc1nc2ccccc2s1 | – | inconclusive: 18.4 µM [falling, single point] |
| O=C(NCc1cccc(Cl)c1)c1cnccn1 | inconclusive: -4.54% | – |
| O=C(CSc1nc2c(sc3ccccc32)c(=O)n1CCO)NCC1CCCO1 (configuration not stated) | inconclusive: 44.5% | – |
| CC1CCC(NC(=O)CCN2C(=O)C3C4C=CC(C4)C3C2=O)CC1 (configuration not stated) | inconclusive: 4.41% | – |
| CCC(C)(C)C1CCc2[nH]nc(C(=O)NCCNC(=O)OC(C)(C)C)c2C1 (configuration not stated) | – | inconclusive: 29.1 µM [falling, single point] |

| Structure (SMILES) | lipid storage change, negative = inhibition | Potency |
| --- | --- | --- |
| COc1ccc(CNCCC2(O)CC(C)N(C)CC2C)cc1OC (configuration not stated) | inconclusive: -12.9% | – |
| COc1ccc(CCNS(=O)(=O)c2cc(C(=O)O)c(Cl)cc2Cl)cc1 | inconclusive: 28.4% [at 9.22 µM] | – |
| COc1ccc2sc(N(CCCN(C)C)C(=O)c3ccc(S(=O)(=O)N(C)C4CCCCC4)cc3)nc2c1 | inconclusive: 4.97% | – |
| Cc1cc(C)nc(NS(=O)(=O)c2ccc(-n3cccc3)cc2)n1 | inconclusive: 8.01% | – |
| Cc1c(NC(=O)Nc2ccc3c(c2)OCO3)c(=O)n(-c2ccccc2)n1C | inconclusive: 35.9% | – |
| COc1ccccc1NC(=O)CCC(=O)OCc1ccc([N+](=O)[O-])cc1 | inconclusive: -25.8% | – |
| Cc1c(Cl)cccc1NC(=O)NCc1ccc(F)cc1 | inactive | – |
| COc1ccc(N(CC(=O)Nc2ccccc2C(=O)N2CCCC2)S(C)(=O)=O)cc1 | – | inconclusive: 0.731 µM [activator, single point] |
| O=C(CCc1nc2sc3c(c2c(=O)[nH]1)CCCC3)NCCc1ccccc1 | – | inconclusive: 0.13 µM [falling, full curve, poor fit] |
| CCCC(C)C(=O)NCc1ccncc1 (configuration not stated) | inconclusive: -40.6% | – |
| C#CCOC(=O)/C(=C/C=C/c1ccccc1)NC(=O)c1ccccc1 | – | inconclusive: 0.103 µM [activator, full curve, poor fit] |
| CC(=NCC1CCCO1)c1c(O)[nH]c(=O)[nH]c1=O (configuration not stated) | inconclusive: -8.44% | – |
| CC(C)N1CCc2c(sc(NC(=O)c3cc(-c4cccs4)nc4ccccc34)c2C(N)=O)C1 | inconclusive: 12% | – |
| CCOc1ccc(CN2CCN(C3CCC3)CC2CCO)cc1 (configuration not stated) | – | inconclusive: 0.0046 µM [falling, full curve, poor fit] |
| CCOC(=O)C1=C(C)Nc2ccccc2N=C1NC(=O)/C=C/c1ccc(OC)cc1OC | inactive | – |
| Cc1ccc(C(=O)N2CCN(c3cccc(C)c3C)CC2)o1 | – | inconclusive: 6.51 µM [activator, single point] |
| COc1ccc(Cl)cc1NC(=O)Cn1cccc1 | inconclusive: 31.4% | – |
| O=C(/C=C/c1ccccc1)N/C(=C/c1ccccc1)C(=O)N1CCOCC1 | – | inconclusive: 1.16 µM [activator, partial curve] |
| O=c1c(C/C=C/c2ccccc2)c(O)ccn1Cc1cccc(Cl)c1 | – | inconclusive: 1.46 µM [falling, full curve, poor fit] |
| CCCn1c(=O)c2sccc2n2c(CCCC(=O)NCc3ccco3)nnc12 | – | active: 29.1 µM |
| COC(=O)c1ccc(OCC(O)CN2C(=O)c3ccccc3S2(=O)=O)cc1 (configuration not stated) | inconclusive: -14.6% | – |
| CC(=O)c1ccccc1NC(=O)COC(=O)/C(=C/c1ccccc1)n1nnnc1C | – | active: 7.31 µM |
| COc1cccc(-c2nn(-c3ccc(F)cc3)cc2C(=O)NCC2CCCO2)c1 (configuration not stated) | – | inconclusive: 6.51 µM [falling, single point] |
| COc1ccc(C(=O)NNC(=O)Cc2ccc(Cl)cc2)cc1 | inconclusive: 16% | – |
| CCOc1ccccc1OCCOCCOc1c(Cl)cccc1Cl | inconclusive: 11% | – |
